Reference: paper PMC8274477
No constants are given. Whether binding was seen depends on the method and setting. Some binding calls cover weakened binding; strength is not graded here.

The chains behind the UniProt entries cited, without tags or fusion partners.
UniProt P50461: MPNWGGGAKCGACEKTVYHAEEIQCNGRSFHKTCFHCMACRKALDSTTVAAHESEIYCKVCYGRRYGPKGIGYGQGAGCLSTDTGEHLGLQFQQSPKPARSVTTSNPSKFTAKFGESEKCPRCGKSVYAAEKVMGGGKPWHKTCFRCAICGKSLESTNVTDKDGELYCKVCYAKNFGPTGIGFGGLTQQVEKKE
UniProt P49848: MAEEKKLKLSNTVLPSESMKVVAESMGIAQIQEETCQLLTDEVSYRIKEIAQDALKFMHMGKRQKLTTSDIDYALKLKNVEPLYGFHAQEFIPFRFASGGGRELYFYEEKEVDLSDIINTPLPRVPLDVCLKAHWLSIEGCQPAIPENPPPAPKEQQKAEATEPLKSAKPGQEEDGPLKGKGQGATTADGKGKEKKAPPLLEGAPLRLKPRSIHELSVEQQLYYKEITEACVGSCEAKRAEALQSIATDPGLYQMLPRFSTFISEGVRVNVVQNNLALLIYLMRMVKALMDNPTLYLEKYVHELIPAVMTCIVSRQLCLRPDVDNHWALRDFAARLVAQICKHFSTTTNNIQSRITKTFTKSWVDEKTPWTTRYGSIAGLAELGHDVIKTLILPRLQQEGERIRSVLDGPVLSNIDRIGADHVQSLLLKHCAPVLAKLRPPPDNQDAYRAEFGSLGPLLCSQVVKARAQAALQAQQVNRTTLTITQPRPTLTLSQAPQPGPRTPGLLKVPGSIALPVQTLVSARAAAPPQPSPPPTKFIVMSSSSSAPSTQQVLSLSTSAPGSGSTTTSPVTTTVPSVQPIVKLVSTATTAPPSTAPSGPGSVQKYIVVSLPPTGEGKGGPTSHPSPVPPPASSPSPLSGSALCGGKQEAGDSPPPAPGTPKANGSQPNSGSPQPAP

Experiments:
Assay in all cases: peptide or protein array; HuProt human proteome microarray; 5 ug/5 ml biotin-labelled LUBAC or OTULIN in solution, 1 h at room temperature; Cy5-streptavidin, scanned at 635 nm; BSA as negative control; hits: Z-score >= 3 and I_(Mean_Ratio) >= 1.4; both purified
NAT6 (human) = target: T1, NAT6 (human) (UniProt Q93015)
T1 sequence: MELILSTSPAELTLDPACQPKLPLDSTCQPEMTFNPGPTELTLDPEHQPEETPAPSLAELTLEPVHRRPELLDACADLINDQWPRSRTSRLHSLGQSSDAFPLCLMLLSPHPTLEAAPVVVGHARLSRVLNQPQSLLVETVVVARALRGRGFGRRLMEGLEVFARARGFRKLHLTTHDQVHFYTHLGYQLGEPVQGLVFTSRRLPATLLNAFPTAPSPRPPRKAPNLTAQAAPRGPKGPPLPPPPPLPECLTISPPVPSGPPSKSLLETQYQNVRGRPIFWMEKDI

ITPKB (human) = target: T2, ITPKB (human) (UniProt P27987)
T2 sequence: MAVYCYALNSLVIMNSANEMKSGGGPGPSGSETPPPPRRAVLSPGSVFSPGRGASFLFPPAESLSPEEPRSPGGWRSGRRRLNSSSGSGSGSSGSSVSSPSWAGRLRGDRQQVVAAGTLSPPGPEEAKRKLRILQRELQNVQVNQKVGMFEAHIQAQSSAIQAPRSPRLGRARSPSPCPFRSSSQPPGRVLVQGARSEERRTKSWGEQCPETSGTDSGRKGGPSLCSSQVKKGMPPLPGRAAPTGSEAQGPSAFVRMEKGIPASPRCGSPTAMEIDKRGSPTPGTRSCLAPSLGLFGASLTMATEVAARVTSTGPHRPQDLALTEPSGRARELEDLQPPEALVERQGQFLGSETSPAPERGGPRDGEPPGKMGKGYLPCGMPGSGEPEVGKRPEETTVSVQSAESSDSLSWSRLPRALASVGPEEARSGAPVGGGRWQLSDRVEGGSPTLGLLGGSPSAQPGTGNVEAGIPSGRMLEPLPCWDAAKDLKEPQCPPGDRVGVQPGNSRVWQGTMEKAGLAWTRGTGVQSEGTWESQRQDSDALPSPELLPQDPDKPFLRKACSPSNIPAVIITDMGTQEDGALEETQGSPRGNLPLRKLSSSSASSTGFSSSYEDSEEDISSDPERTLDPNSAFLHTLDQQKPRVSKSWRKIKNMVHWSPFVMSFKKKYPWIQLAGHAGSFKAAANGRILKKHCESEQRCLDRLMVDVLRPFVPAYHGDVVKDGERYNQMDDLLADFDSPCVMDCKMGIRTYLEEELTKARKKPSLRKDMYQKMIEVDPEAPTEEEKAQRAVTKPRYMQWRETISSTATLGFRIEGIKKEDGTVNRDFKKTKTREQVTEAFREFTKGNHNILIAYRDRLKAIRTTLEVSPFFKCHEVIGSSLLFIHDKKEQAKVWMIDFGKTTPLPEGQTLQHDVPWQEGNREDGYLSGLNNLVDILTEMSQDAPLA

TCF7L1 (human) = target: T3, TCF7L1 (human) (UniProt Q9HCS4)
T3 sequence: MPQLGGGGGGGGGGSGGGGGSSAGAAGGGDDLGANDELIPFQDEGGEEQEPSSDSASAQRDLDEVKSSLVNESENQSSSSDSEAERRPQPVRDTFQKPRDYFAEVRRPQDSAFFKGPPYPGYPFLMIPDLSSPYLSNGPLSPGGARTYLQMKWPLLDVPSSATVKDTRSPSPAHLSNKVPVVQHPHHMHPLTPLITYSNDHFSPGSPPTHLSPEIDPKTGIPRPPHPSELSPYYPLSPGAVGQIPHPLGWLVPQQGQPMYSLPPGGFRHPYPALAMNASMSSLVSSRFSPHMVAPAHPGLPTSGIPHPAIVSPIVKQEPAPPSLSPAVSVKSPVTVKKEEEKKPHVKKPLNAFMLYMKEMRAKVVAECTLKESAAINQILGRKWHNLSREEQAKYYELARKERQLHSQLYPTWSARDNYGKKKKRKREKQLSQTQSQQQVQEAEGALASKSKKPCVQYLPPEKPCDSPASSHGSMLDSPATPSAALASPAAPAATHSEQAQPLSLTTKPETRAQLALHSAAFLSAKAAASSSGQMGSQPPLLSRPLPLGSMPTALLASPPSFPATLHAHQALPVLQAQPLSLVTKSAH

CSRP1 (human) = target: T4, CSRP1 (human) (UniProt P21291)
T4 sequence: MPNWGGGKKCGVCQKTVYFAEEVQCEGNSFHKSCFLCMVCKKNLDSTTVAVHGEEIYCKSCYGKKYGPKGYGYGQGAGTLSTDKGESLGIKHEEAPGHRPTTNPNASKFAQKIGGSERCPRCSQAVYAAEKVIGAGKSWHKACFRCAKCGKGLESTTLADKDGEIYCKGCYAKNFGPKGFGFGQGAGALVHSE

CSRP3 (human) = CSRP3 (human) (UniProt P50461)
TAF6 (human) = TAF6 (human) (UniProt P49848)

Measured: binding

linear ubiquitin chain assembly complex (LUBAC), purified as HIS-tagged HOIP with the subunit HOIL-1, biotin-labelled (from UniProt Q96EP0 1-1072; Q9BYM8 1-510)
binds: all assays above
